Experimental data: PubChem BioAssay AID1259308 (NCATS, 2017)
Here is a random part of about 59,000 reagents. About 1,510 of all reagents (2.6%) were called active. 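Calls use total luciferase alone and ignore viability, so some active siRNAs may act by altering cell number.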 Reagents against one gene are numbered here. Not all columns of the deposit are shown.

Test: 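Candidate targets for better recombinant protein yield in mammalian cells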 (primary screen)
Cells: human HEK293 embryonic kidney cells stably expressing firefly luciferase (HEK-CMV-Luc2-Hygro)
Knock-down reagent: single siRNA against human genes, 0.8 pmol siRNA per well
Timing: 72 h
Measured: 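Luciferase light (ONE-Glo) measured on one replicate plate set and viability (CellTiter-Glo) on the other, scaled to a negative control siRNA, with robust z-scores and luciferase per cell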
Scale: total luciferase, z-score: higher = more reporter protein produced
Call rule: 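An siRNA counts as active if its total luciferase robust z-score exceeds 3; genes with two or more such siRNAs out of three were retested with fresh siRNAs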
Calls: active = raised luciferase; inactive = no rise

Against MAP3K7CL #1, the values are total luciferase, z-score 2.27; inactive.
MAP3K7CL #2 showed total luciferase, z-score 0.719; inactive.
For MAP3K7CL #3, the values are total luciferase, z-score 1.1; inactive.
After knock-down of TRNP1 #1, the record shows total luciferase, z-score 0.93; inactive.
For TRNP1 #2, the values are total luciferase, z-score -0.33; inactive.
Depletion of TRNP1 #3 came out at: total luciferase, z-score -1.63; inactive.
PPM1B #1 showed total luciferase, z-score 1.99; inactive.
For PPM1B #2 the deposit lists total luciferase, z-score 0.735; inactive.
With knock-down of PPM1B #3, the screen gave total luciferase, z-score 0.384; inactive.
ZNF107 #1 showed total luciferase, z-score 0.359; inactive.
Silencing of ZNF107 #2 gave: total luciferase, z-score -1.26; inactive.
Silencing of ZNF107 #3 resulted in: total luciferase, z-score 0.695; inactive.
XKR7 #1 gave total luciferase, z-score 0.181; inactive.
For XKR7 #2 the deposit lists total luciferase, z-score -0.287; inactive.
Depletion of XKR7 #3 gave: total luciferase, z-score 0.849; inactive.

Part of the list above in another layout:
target	reagent	total luciferase, z-score	Outcome
ZNF107	1	0.359	inactive
ZNF107	2	-1.26	inactive
ZNF107	3	0.695	inactive

Additional records follow:
With knock-down of CDC25C #1 the results were total luciferase, z-score -2.21; inactive.
For CDC25C #2, the values are total luciferase, z-score -1.62; inactive.
After knock-down of CDC25C #3, the record shows total luciferase, z-score 1.77; inactive.
For SV2C #1 the deposit lists total luciferase, z-score 1.08; inactive.
Depletion of SV2C #2 gave: total luciferase, z-score 0.0063; inactive.
SV2C #3 scored total luciferase, z-score 1.4; inactive.
After knock-down of IL7R #1, the screen gave total luciferase, z-score -0.324; inactive.
IL7R #2 gave total luciferase, z-score -1.43; inactive.
For IL7R #3, the values are total luciferase, z-score 1.66; inactive.
Against RAB1A #1, the entry reads total luciferase, z-score -0.683; inactive.
Against RAB1A #2, the entry reads total luciferase, z-score -0.862; inactive.
Knock-down of RAB1A #3 resulted in: total luciferase, z-score 0.432; inactive.
NRAD1 #1 scored total luciferase, z-score -0.549; inactive.
With knock-down of NRAD1 #2 the results were total luciferase, z-score -1.14; inactive.
Silencing of NRAD1 #3 came out at: total luciferase, z-score -1.33; inactive.
ORMDL2 #1 scored total luciferase, z-score -0.617; inactive.
For ORMDL2 #2, the values are total luciferase, z-score -0.575; inactive.
Knock-down of ORMDL2 #3 resulted in: total luciferase, z-score 0.0819; inactive.
Depletion of ZNF484 #1 resulted in: total luciferase, z-score -0.422; inactive.
Knock-down of ZNF484 #2 resulted in: total luciferase, z-score 0.388; inactive.
After knock-down of ZNF484 #3, the record shows total luciferase, z-score -0.214; inactive.
Against NTN3 #1 the deposit lists total luciferase, z-score -1.72; inactive.
With knock-down of NTN3 #2 the results were total luciferase, z-score 3.33; active.
After knock-down of NTN3 #3, the screen gave total luciferase, z-score -2.11; inactive.
SS18L2 #1 gave total luciferase, z-score 1.44; inactive.
SS18L2 #2 scored total luciferase, z-score 0.526; inactive.
After knock-down of SS18L2 #3 the results were total luciferase, z-score 1.5; inactive.
